Hit rate of the full screen: of about 340,000 compounds, about 170 (0.05%) were called active. The inconclusive results got no clear call from the source; some entries with a clear call stand among them for comparison. The call rests on the fitted dose curve; in most records, active means well fitted inhibition curve with a large enough effect in the signal ratio, with a control signal flat (not every such curve was filed as active); inconclusive means small, poorly fitted or top-dose-only effect, or effect the other way, or a change in a side signal; inactive means flat fitted curve, though single readings scatter; the % refers to the signal ratio. Potencies of inconclusive entries are doubtful fits and often do not repeat.
experiment: qHTS Assay to Find Inhibitors of Chronic Active B-Cell Receptor Signaling; conditions: ABC-DLBCL IkBa-CBG/CBR reporter, luminescence ratio (green luciferase fused to IkBa over red control in TMD8 lymphoma cells), 4 h; activity change, negative = inhibition: at 46.1 µM (top of the series) unless noted;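 on activity change, negative = inhibition: plate controls were basal doxycycline-induced cells for no effect and cells given 10 µM MG132 for full effect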
Method in brief: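 Cell line TMD8 (human ABC DLBCL), stably expressing tet-inducible CBG68-IkBa fusion and CBR; IMDM/0.5% FBS; cpd up to 46 uM; dox induction, 4 h, 37C/5% CO2; dual luminescence; green/red ratio; MG132 control.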
Potency means the concentration at half of the fitted maximal effect.

SMILES	Potency	activity change, negative = inhibition
C=CCn1c(SCC(=O)Nc2ccc(F)cc2F)nnc1-c1cnccn1	inconclusive: 11.2 µM [falling, partial curve]	
CC1CCN(CCc2nc3cc(NS(=O)(=O)c4ccc(F)cc4)ccc3n2C)CC1		inconclusive: 0.17%
Clc1ccc(C2=NN(c3ccccc3)C(c3ccco3)C2)cc1 (stereo not given)	inconclusive: 15.8 µM [rising, single point]	
Oc1ccc(Oc2ccc(Oc3ccc(O)cc3)cc2)cc1		inconclusive: -14.5%
O=C(Nc1cccc(F)c1)NC1(C(=O)NCC2CCCO2)CCCCC1 (stereo not given)		inactive: 0.811%
CC(=O)c1ccc(NC(=O)CSc2nc3ccccc3c(=O)n2CCCN2CCOCC2)cc1	inconclusive: 29.1 µM [falling, partial curve, poor fit]	
Cn1cnc2c1c(=O)[nH]c(=O)n2Cc1ccccc1		inactive: -3.67%
Oc1ccc(-c2csc(Nc3cccnc3)n2)cc1		inconclusive: -20%
Nc1cccnc1S(=O)(=O)c1ccccc1	inconclusive: 35.5 µM [falling, partial curve, poor fit]	
COc1ccc(C2=Nn3c(nnc3-c3cccnc3)SC2)cc1OC		inconclusive: -10.8%
Cc1cc(NC(=O)c2ccc(F)cc2F)n(-c2nc3ccccc3[nH]2)n1		inactive: 2.82%
COc1ccccc1Oc1ccc(S(=O)(=O)Nc2cccnc2)cc1		inconclusive: -0.146%
Cc1cc(=O)c(C(=O)O)cn1Nc1ccc(Cl)cc1	inconclusive: 29.1 µM [rising, partial curve, poor fit]	
CN(c1ccc(-c2csc(NC(=O)C3CC(=O)N(Cc4ccco4)C3)n2)cc1)S(C)(=O)=O (stereo not given)		inactive: -0.31%
CC(O)CNc1nc2sc3c(c2c(=O)n1CCc1ccccc1)CCCCC3 (stereo not given)	inconclusive: 14.6 µM [rising, partial curve, poor fit]	
COc1ccc(C(=O)NC(C(=O)NCc2ccccn2)C(C)C)cc1 (stereo not given)		inconclusive: 3.38%
CCOC(=O)c1cnc(-n2cc(C)cn2)nc1Nc1ccccc1OC		inconclusive: -2.89%
CCC(C)(C)NC(=O)CN(CCc1cccc(C)c1)C(=O)c1csnn1		inactive: -0.586%
C#CCOCCOCCOCCNc1nc(N2CCN(C(=O)CCCCCCCCCCNC(=O)[C@H](CCCCN)n3cc(C)nn3)CC2)nc(N2CCN(C(=O)CCCCCCCCCCNC(=O)[C@@H]([C@H](C)CC)n3cc(CCCCCN)nn3)CC2)n1		inconclusive: 5.65%
COc1ccc(C(=O)N/N=C2\CCc3ccccc32)cc1OC	inconclusive: 11.2 µM [falling, partial curve]	
Cc1[nH]n(S(=O)(=O)Cc2ccccc2)c(=O)c1N=Nc1ccccc1Cl		inconclusive: 16.4%
COc1ccc(C2=NN(C(=O)CSc3nc4ccccc4s3)C(c3ccc(OC)cc3)C2)cc1 (stereo not given)		inactive: 4.78%
COc1ccccc1NC(=O)Oc1cccc(OC(=O)c2ccccc2)c1		inconclusive: -0.759%
O=C(NCC(=O)N1CCCCCCC1)c1ccccc1Cl		inconclusive: -2.57%
N#Cc1c(N)nc2c(c1N)CC(CO)O2 (stereo not given)		inactive: -0.5%
COc1ccc(C(=O)N(C)Cc2ccccc2F)cc1S(=O)(=O)N1CCCC1		inconclusive: -1.75%
Clc1ccc(/C=N/c2c(-c3ccco3)nc3ccccn23)cc1	inconclusive: 11.6 µM [rising, partial curve]	

A different layout for some results above:
SMILES | Potency | activity change, negative = inhibition
CC1CCN(CCc2nc3cc(NS(=O)(=O)c4ccc(F)cc4)ccc3n2C)CC1 |  | inconclusive: 0.17%
CN(c1ccc(-c2csc(NC(=O)C3CC(=O)N(Cc4ccco4)C3)n2)cc1)S(C)(=O)=O (stereo not given) |  | inactive: -0.31%
COc1ccc(C2=NN(C(=O)CSc3nc4ccccc4s3)C(c3ccc(OC)cc3)C2)cc1 (stereo not given) |  | inactive: 4.78%
Clc1ccc(/C=N/c2c(-c3ccco3)nc3ccccn23)cc1 | inconclusive: 11.6 µM [rising, partial curve] | 

Ordered by formula weight (ascending): 3 of the compounds above.
SMILES	Potency	activity change, negative = inhibition
N#Cc1c(N)nc2c(c1N)CC(CO)O2 (stereo not given)		inactive: -0.5%
C=CCn1c(SCC(=O)Nc2ccc(F)cc2F)nnc1-c1cnccn1	inconclusive: 11.2 µM [falling, partial curve]	
COc1ccc(C(=O)N(C)Cc2ccccc2F)cc1S(=O)(=O)N1CCCC1		inconclusive: -1.75%

Further structures

SMILES	Potency	activity change, negative = inhibition
CCn1c(=O)cc(OCC(=O)Nc2cc(C)ccn2)c2ccccc21		inconclusive: 12.2%
CCc1ccccc1NC(=S)NCCSc1ccc(Cl)cc1		inconclusive: 10.9%
O=C(CNC(=O)c1cccc(F)c1)N/N=C/c1cc(Br)ccc1OCc1ccccc1		inactive: 6.74%
CC(/C=C/c1ccc(N(C)C)cc1)=N\N=C1\NC(=O)CC(C(=O)Nc2ccccc2)S1 (stereo not given)	inconclusive: 20.6 µM [falling, single point]	
CN1CCN(CCCNC(=S)Nc2ccc(F)c(Cl)c2)CC1		inactive: -7.47%
Cc1nc(SCc2cccc(F)c2)c2oc3ccccc3c2n1		inconclusive: -12.6%
Cc1cc(C)c(S(=O)(=O)N2CCCC(C(=O)N3CCOCC3)C2)c(C)c1 (stereo not given)		inconclusive: -2.31%
Cc1ccc(C)c(S(=O)(=O)Nc2cc(SCC(=O)O)c(O)c3ccccc23)c1		inconclusive: -12.2%
O=C1N=C(N2CCN(c3cccc4ccccc34)CC2)S/C1=C/c1cccs1		inconclusive: -6.18%
COc1ccccc1Nc1nc(N)nc(CN2CCC(C)CC2)n1		inconclusive: -23%
CCCOC(=O)c1ccc(NC(=O)C(=O)NCC2CCCO2)cc1 (stereo not given)	inconclusive: 0.092 µM [falling, partial curve, poor fit]	
CCCOc1ccc(C2C(C(=O)c3ccc(C)o3)=C(O)C(=O)N2Cc2ccco2)cc1 (stereo not given)		inconclusive: 5.77%
Cn1cc(S(=O)(=O)Nc2ccc(F)c(Cl)c2)c(=O)n(C)c1=O		inactive: 0.853%
Cc1c(NS(=O)(=O)c2cccc(C(=O)N3CCCC3)c2)c(=O)n(-c2ccccc2)n1C		inconclusive: 2.32%
C[n+]1ccccc1/C=C/c1ccc([N+](=O)[O-])cc1		inactive: 1.28%
CN(CCC#N)C(=O)COC(=O)c1ccccc1OCc1ccccc1Cl	inconclusive: 15.8 µM [falling, single point]	
COc1cccc(N2CC(NC(=O)c3cccc4ccccc34)CC2=O)c1 (stereo not given)		inconclusive: -0.433%
CCn1c(=O)c(C(=O)NCCc2ccc(OC)c(OC)c2)c(O)c2ccccc21		inconclusive: -18.4%
COc1cc(CNCc2ccco2)ccc1OCc1ccccc1		inconclusive: -0.706%
Cc1ccc2cc(C)c3nnc(SCC(=O)N4CCN(C(=O)c5ccco5)CC4)n3c2c1		inconclusive: -0.0532%
O=C(Nc1ccccc1)c1cccc(-c2nnc(-c3ccccc3)o2)c1		inconclusive: 0.689%
Cc1occc1C(=O)N/N=C/c1c[nH]c2ccccc12	inconclusive: 35.5 µM [rising, partial curve]	
CCn1c(SCC(=O)c2cc(OC)ccc2OC)nnc1C(C)C	inconclusive: 17.8 µM [falling, single point]	
Cc1cccc(C2NC(c3cccc(C)c3)C(C)C(=O)C2C)c1 (stereo not given)	inconclusive: 17.8 µM [rising, partial curve, poor fit]	
CCCCCCCCNC(=O)/C(C#N)=C/c1ccccc1[N+](=O)[O-]		inactive: -29%
Cn1c(=O)c2[nH]c(CNCc3ccccc3Cl)nc2n(C)c1=O	inconclusive: 6.51 µM [falling, single point]	
COc1ccccc1-c1cc(C(=O)N2CCc3ccccc3C2)c2ccccc2n1		inconclusive: 11.6%

SMILES	Potency	activity change, negative = inhibition
Cc1ccc2nc3c(cc(C(=O)NCc4ccco4)c(=N)n3Cc3ccco3)c(=O)n2c1		inactive: 6.29%
CCc1ccc(NC(=O)C(=O)NCc2ccccn2)cc1		inconclusive: 4.97%
CCN(CCCNC(=O)c1ccc(Sc2ccc(Cl)cc2)c(NC(C)=O)c1)c1ccccc1		inactive: 0.356%
Cc1cccc(-n2cc[nH]c2=S)c1		inactive: -2.06%
COc1cc(NC(=O)CCc2nnc3ccc(N4CCN(C)CC4)nn23)cc(OC)c1		inconclusive: 4.03%
CCOC(=O)C1(Cc2ccccc2)CCN(Cc2cnc(N3CCOCC3)s2)CC1		inconclusive: -24.5%
CN(C)c1ccc(C(=O)N2CCN(c3cc(C(F)(F)F)nc4ccccc34)CC2)cc1		inactive: -2.89%
COc1ccc(/C=N/NC(=O)CCn2c3ccccc3c3ccccc32)cc1O	inconclusive: 16.4 µM [cytotoxic, partial curve]	
CCC(C)NC(=O)CCn1c(-c2ccccc2)cc(C(C)=O)c1C (stereo not given)		inconclusive: -0.4%
CCOC(=O)c1ccc(Nc2nnc(C)c3ccccc23)cc1		inconclusive: 13.9%
COCCCN1Cc2cccc(C(=O)O)c2C1=O		inconclusive: -4.18%
CCOC(=O)C1=C(C)N(C)C(=O)NC1c1c(C)nn(-c2ccc(C)cc2)c1Cl (stereo not given)	inconclusive: 32.6 µM [falling, partial curve, poor fit]	
CN(CC(=O)Nc1cc(S(=O)(=O)N2CCCCCC2)ccc1Cl)Cc1ccc2c(c1)OCO2		inconclusive: 13%
Cc1c(C(=O)N(C)C)sc2c1c(=O)n(-c1ccc(F)cc1)c(=O)n2Cc1ccccc1C#N		inactive: -4%
CCOC(=O)C1=C(c2ccccc2)NC(=S)NC1c1ccc(Cl)cc1 (stereo not given)		inconclusive: -0.285%
N#C/C(=C\c1ccco1)c1nc2ccccc2s1		inconclusive: -5.29%
CC(C)c1nc(SCC(=O)c2ccc(F)cc2)c2ccccc2n1	inconclusive: 35.5 µM [cytotoxic, single point]	
COc1cc(C)ccc1OCCOCCOc1ccc(C)cc1[N+](=O)[O-]		inconclusive: 0.73%
COc1ccc(N2CCN(CCCNS(=O)(=O)c3c(C)noc3/C=C/N(C)C)CC2)cc1		inconclusive: 2.18%
CCCn1c(CC)nc([N+](=O)[O-])c1S(=O)(=O)c1ccccc1	inconclusive: 10 µM [falling, partial curve, poor fit]	
Cc1ccc(C(=O)NCCc2c[nH]c3ccccc23)s1		inactive: -13.3%
CC(=O)/C=C\c1cn(-c2ncc(C(F)(F)F)cc2Cl)c2ccccc12		inconclusive: 2.58%
Cc1cc(NC(=O)CSc2n[nH]c(CC(C)C)n2)no1		inconclusive: 8.8%
CCOc1cc(-c2nccc3cc(OC)c(OC)cc23)cc(OCC)c1OCC	inconclusive: 12.6 µM [falling, partial curve, poor fit]	
N#CC1=C(N)Oc2cc3ccccc3cc2C1c1cccnc1 (stereo not given)		inconclusive: -15.1%
O=C(c1ccc(S(=O)(=O)c2cccc(Cl)c2)c([N+](=O)[O-])c1)N1CCN(c2ccccn2)CC1	inconclusive: 3.16 µM [falling, single point]	
